Patent US20240209086A1
Where a chain is given by its changes, count along the chain named. These are yes or no findings as the source states them, for the method shown. Some entries that bind do so weakly or less than the wild type. One block for each binder: values may come before it.

What was measured:
[1] = molecular target: T1, canine CD20 on cells (HEK293, MDCK II, CLBL-1 or native B cells) (canine) (UniProt Q3C2E2); assay: flow cytometry, canine CD20 MDCK cells, 1 µg/ml, PE anti-human Fc; mean intensities of FIG. 13C
T1 sequence: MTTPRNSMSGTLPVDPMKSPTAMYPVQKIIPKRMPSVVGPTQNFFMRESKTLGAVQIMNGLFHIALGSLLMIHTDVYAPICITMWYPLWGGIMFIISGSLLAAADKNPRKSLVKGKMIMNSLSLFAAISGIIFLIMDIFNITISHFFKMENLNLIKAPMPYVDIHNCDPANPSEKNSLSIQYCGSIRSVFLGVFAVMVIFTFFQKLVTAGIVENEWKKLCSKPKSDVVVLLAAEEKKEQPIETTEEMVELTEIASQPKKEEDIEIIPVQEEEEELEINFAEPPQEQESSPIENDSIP

[2] = molecular target: T1, canine CD20 on cells (HEK293, MDCK II, CLBL-1 or native B cells) (canine); assay: flow cytometry, canine CD20 MDCK cells, 1 µg/ml, PE anti-human Fc
[3] = molecular target: T1, canine CD20 on cells (HEK293, MDCK II, CLBL-1 or native B cells) (canine); assay: flow cytometry, canine CD20-overexpressing MDCK cells, 1 µg/ml

binding [1]: binds | binding [2]: binds | binding [3]: binds
B1: PMX172VH/PMX272VH/PMX172VL (bispecific antibody, V domains shown)
VH 1: EVQLVESGGDLVKPGGSLRLSCVASGFTFSSYHMSWVRQAPGKGLQWVAYSNSGGSRTSYADAVKGRFTISRDNAKNTLYLQMNSLRAEDTAVYYCASEGGGGRYGYKDYGMDYWGHGTSLFVSS
VH 2: EVQLVESGGDLVKPGGSLRLSCVASGFTFSRYYMNWVRQAPGKGLQWVAYIDSDGSSTSYADAVKGRFTISRDNAKNTLYLQMNSLRADDTAVYYCTSFDYWGQGTLVTVSS
VL: SYVLTQLPSKNVTLKQPAHITCGGDNIGSKSVHWYQQKLGQAPVLIIYYDSSRPTGIPERFSGANSGNTATLTISGALAEDEADYYCQVWDSSAKAWVFGEGTQLTVL

binding [1]: binds | binding [2]: binds | binding [3]: binds
B2: PMX172VH/PMX273VH/PMX172VL (bispecific antibody, V domains shown)
VH 1: B1 VH 1
VH 2: B1 VH 2 with V2M, Y33H, N35S, S57P, S59N, D89E, S98T, F99Y, Y101Q
VL: B1 VL
